Experimental data taken from patent US11590158B2, “Pharmaceutical compositions of lipoic acid choline ester salts and methods of treatment using same” (Novartis AG, priority 2020, dated 2023).
Where a name gives a salt, the structure may show the parent alone. Some results were stated once for a whole list of compounds, not compound by compound. For part of these data: At least one compound was matched to its structure with a doubt left. Some compounds share one range, which may span the group rather than tell each member.

Legend:
[1] = Stability in aqueous solutions or suspensions; type: physicochemical; conditions: acidic as well as basic aqueous pH buffer solution and water; 40° C. for 1 week
From the text: At pH 4.7 buffer solution about 4% degradation is observed.

[2] = Stability in organic solutions or suspensions; type: physicochemical; conditions: 0.1% solution in acetonitrile and 0.1% suspensions in heptane; 40° C. for 1 week
[3] = Excipient compatibility; conditions: same excipients (HPMC, HPβCD, Na-CMC, alanine, histidine); 25° C. for 1 week
[4] = Solid state stability; conditions: 40° C. 75% RH for 1 week

In the case of `C[N+](C)(C)CCOC(=O)CCCC[C@@H]1CCSS1.[Cl-]` [LACE-Cl, lipoic acid choline ester chloride], the degradation [1] is reported as 10-99% and the degradation [2] is reported as less than 2%.

In the case of `C[N+](C)(C)CCOC(=O)CCCCC1CCSS1.[I-]` (stereo not drawn) [LACE-I, lipoic acid choline ester iodide], the degradation [1] is reported as 10-99%, the degradation [2] is reported as less than 2% and the degradation [3] is reported as less than 2%.

In the case of `C[N+](C)(C)CCOC(=O)CCCCC1CCSS1` (stereo not drawn) [LACE-OBs, lipoic acid choline ester besylate], the degradation [2] is reported as less than 2% and the degradation [4] is reported as 4-7%.

For `C[N+](C)(C)CCOC(=O)CCCCC1CCSS1` (stereo not drawn) [LACE-OTs, lipoic acid choline ester tosylate], the degradation [2] was less than 2% and the degradation [4] was 4-7%.
